Data as given in PubChem BioAssay AID1159584 (Peter MacCallum Cancer Centre, 2016)

Assay: 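Knock-downs that harm CDH1-null cells more than parental MCF10A cells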 (primary screen)
Cells: human MCF10A breast epithelial cells, parental and CDH1-null
Knock-down reagent: siRNA against human genes
Measurement: 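ATP luminescence (CellTiter-Glo) viability per line relative to mean mock wells over all plates, and the ratio of CDH1-null to parental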
Direction: CDH1-null / parental viability ratio: higher = CDH1-null cells survive relatively better than parental; CDH1-null viability vs mock: higher = more viable CDH1-null cells
The whole screen tested about 18,000 reagents; shown is a random part of them. Not all columns of the deposit are shown. Reagent sequences are not shown. Not stated in the record: the amount of reagent, the time to read-out.

target | CDH1-null / parental viability ratio | CDH1-null viability vs mock (fraction of mock)
TMEM257 (retired record) | 0.97 | 0.76
GTPBP1 | 0.9 | 0.94
GET1 | 1.07 | 0.9
IRF2BPL | 0.84 | 0.74
SOCS3 | 0.93 | 0.63
PLD1 | 1.16 | 0.92
EIF3K | 0.8 | 0.74
NPS | 1.14 | 1.04
ZNF71 | 1.42 | 0.85
TCEAL3 | 1.01 | 0.99
GLMN | 1.39 | 0.97
EIF3B | 1.24 | 0.52
PAFAH1B1 | 1.14 | 0.98
PDCD1 | 1.6 | 0.72
CEACAM18 | 1.12 | 0.96
IFIT1 | 0.64 | 0.55
SLC35B2 | 0.84 | 0.76
PTPN14 | 1.4 | 1.02
TIGD1 | 1.12 | 0.9
DDX25 | 1.02 | 0.58
NTAN1 | 1.12 | 1.04
CHRNA6 | 1.33 | 1.05
KPNA2 | 1.1 | 0.92
RMND5B | 1.45 | 0.96
ZBTB16 | 1 | 0.8
PPP1R3C | 1.38 | 0.98
GPR15LG | 1.11 | 0.8
OR8U9 | 1.11 | 0.52
